Source: patent US10426159B1, “Highly efficient enhancers for antifreeze protein activity” (The Trustees of California State University, priority 2012, dated 2019)
At least one read-out could not be matched to a standard name with certainty.

Test system: Dendroides canadensis antifreeze proteins DAFPs: DAFP-1, -2, -4, and -6
Assay: Enhancement of TH activity of DAFPs
Type: biochemical
Details: concentration not given

With `NC(=O)c1ccc[n+]([C@@H]2O[C@H](COP(=O)([O-])OP(=O)(O)OC[C@H]3O[C@@H](n4cnc5c(N)ncnc54)[C@H](OP(=O)(O)O)[C@@H]3O)[C@@H](O)[C@H]2O)c1` [NADP, (3-nicotinamide adenine dinucleotide phosphate] the “increase in TH activity” value was “at least 15 fold”.
For `NC(=O)C1=CN([C@@H]2O[C@H](COP(=O)(O)OP(=O)(O)OC[C@H]3O[C@@H](n4cnc5c(N)ncnc54)[C@H](OP(=O)(O)O)[C@@H]3O)[C@@H](O)[C@H]2O)C=CC1` [NADPH, (3-nicotinamide adenine dinucleotide phosphate, reduced], the “increase in TH activity” value was “at least 15 fold”.
